We go through four molecules from PMC8938454.

No constants are given. Whether binding was seen depends on the method and setting. For some assays here: Binding seen in cells or lysates may run through a third protein. Some binding calls cover weakened binding; strength is not graded here. For some assays here: Tags and fused reporters may be left off the sequences shown.

Assay [1] concerns the target T1, JIP4/SPAG9 scaffolding protein, endogenous in HEK293T (human (endogenous in HEK293T)) (UniProt O60271).
T1 sequence: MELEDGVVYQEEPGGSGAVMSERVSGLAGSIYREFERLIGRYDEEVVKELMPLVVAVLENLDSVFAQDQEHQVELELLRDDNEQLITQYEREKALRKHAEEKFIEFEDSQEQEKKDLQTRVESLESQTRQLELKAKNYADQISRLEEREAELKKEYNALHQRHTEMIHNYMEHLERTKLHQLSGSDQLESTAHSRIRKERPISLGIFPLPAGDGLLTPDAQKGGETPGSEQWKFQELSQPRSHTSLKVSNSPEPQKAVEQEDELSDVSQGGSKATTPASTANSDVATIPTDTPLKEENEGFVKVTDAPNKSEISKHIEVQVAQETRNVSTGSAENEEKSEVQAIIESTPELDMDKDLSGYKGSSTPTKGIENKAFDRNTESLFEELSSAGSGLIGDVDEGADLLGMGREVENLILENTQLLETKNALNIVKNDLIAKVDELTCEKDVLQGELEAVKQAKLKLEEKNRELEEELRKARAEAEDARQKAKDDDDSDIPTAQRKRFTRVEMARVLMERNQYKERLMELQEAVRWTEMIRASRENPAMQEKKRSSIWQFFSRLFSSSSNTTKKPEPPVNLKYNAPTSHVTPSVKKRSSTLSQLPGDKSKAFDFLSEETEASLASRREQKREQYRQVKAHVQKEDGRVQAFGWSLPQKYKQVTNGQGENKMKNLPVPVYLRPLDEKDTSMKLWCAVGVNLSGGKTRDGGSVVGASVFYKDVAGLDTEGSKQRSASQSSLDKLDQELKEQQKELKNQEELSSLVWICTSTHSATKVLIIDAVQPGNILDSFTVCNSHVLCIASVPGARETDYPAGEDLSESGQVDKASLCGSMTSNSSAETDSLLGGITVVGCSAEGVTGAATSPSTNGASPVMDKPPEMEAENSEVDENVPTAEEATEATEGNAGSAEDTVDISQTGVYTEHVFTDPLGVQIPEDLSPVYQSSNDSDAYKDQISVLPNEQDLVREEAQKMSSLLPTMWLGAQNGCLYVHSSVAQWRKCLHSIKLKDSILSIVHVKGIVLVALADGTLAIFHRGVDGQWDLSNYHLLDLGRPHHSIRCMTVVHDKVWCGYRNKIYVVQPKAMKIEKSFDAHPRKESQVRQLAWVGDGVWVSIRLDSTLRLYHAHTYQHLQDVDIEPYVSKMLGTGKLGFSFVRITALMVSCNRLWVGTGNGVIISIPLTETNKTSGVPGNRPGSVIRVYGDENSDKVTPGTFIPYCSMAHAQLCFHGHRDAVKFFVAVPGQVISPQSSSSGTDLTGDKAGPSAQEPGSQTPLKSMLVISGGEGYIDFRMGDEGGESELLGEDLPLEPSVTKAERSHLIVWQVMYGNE
As to the kind of experiment: co-IP; endogenous IP from HEK293T cell lysates with antibody-conjugated resin (anti-Arl8, anti-RUFY3 or anti-JIP4; mouse IgG resin as control); in Fig. 5l cells treated with control or RUFY3 siRNA.

For assay [2], the target named is T2, RUFY3, endogenous in HEK293T (human (endogenous in HEK293T)) (UniProt Q7L099).
T2 sequence: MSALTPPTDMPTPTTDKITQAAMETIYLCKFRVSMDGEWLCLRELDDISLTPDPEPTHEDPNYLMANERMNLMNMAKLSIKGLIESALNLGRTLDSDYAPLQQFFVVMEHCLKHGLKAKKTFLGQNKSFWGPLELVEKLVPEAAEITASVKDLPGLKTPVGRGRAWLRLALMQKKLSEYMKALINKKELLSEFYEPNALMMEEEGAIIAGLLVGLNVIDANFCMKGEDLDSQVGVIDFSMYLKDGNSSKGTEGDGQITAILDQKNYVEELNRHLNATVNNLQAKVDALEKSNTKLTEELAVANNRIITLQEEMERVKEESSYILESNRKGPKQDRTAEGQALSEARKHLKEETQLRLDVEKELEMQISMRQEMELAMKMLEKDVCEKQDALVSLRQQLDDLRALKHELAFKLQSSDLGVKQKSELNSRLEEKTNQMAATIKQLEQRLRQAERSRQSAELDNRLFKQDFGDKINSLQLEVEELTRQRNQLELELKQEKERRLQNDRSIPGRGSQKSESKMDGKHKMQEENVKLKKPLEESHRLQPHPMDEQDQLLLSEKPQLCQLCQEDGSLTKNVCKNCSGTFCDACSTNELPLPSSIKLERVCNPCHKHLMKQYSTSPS
The assay is described as above.

The target in assay [3] is T3, GST-tagged-RUFY3 (WT) (human) (UniProt Q7L099).
T3 sequence: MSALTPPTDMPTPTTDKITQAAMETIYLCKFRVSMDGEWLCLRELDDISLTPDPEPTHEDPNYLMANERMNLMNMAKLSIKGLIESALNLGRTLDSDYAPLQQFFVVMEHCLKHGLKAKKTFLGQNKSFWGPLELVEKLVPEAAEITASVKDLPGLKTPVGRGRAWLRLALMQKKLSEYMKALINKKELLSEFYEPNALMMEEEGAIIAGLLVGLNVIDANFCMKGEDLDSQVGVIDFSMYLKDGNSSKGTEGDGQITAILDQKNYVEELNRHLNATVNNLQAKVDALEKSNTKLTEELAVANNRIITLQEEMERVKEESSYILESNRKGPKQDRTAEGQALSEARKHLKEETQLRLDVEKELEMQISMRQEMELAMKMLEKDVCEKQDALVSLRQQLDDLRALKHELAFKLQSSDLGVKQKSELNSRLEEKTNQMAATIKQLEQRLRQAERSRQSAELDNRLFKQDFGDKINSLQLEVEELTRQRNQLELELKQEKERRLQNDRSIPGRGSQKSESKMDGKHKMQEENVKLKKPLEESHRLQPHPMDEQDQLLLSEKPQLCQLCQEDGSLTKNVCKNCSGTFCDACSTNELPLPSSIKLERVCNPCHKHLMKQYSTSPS
As to the kind of experiment: pull-down; GST or GST-RUFY3 on glutathione beads incubated with semi-purified FLAG-JIP4 (eluted from anti-FLAG beads) in NP-40 buffer; blot with anti-FLAG; both purified.

For “dynactin 1/p150glued (DCTN1), endogenous in HEK293T (from UniProt Q14203-1 1-1278)”, the binding result in assay [1] and in assay [2] was “binds” in each case.

B1: RUFY3, endogenous in HEK293T (protein, UniProt Q7L099-3 1-620)
chain: MSALTPPTDMPTPTTDKITQAAMETIYLCKFRVSMDGEWLCLRELDDISLTPDPEPTHEDPNYLMANERMNLMNMAKLSIKGLIESALNLGRTLDSDYAPLQQFFVVMEHCLKHGLKAKKTFLGQNKSFWGPLELVEKLVPEAAEITASVKDLPGLKTPVGRGRAWLRLALMQKKLSEYMKALINKKELLSEFYEPNALMMEEEGAIIAGLLVGLNVIDANFCMKGEDLDSQVGVIDFSMYLKDGNSSKGTEGDGQITAILDQKNYVEELNRHLNATVNNLQAKVDALEKSNTKLTEELAVANNRIITLQEEMERVKEESSYILESNRKGPKQDRTAEGQALSEARKHLKEETQLRLDVEKELEMQISMRQEMELAMKMLEKDVCEKQDALVSLRQQLDDLRALKHELAFKLQSSDLGVKQKSELNSRLEEKTNQMAATIKQLEQRLRQAERSRQSAELDNRLFKQDFGDKINSLQLEVEELTRQRNQLELELKQEKERRLQNDRSIPGRGSQKSESKMDGKHKMQEENVKLKKPLEESHRLQPHPMDEQDQLLLSEKPQLCQLCQEDGSLTKNVCKNCSGTFCDACSTNELPLPSSIKLERVCNPCHKHLMKQYSTSPS
As to B1, the binding entry in assay [1] is recorded as “binds”.

B2: FLAG-tagged-JIP4, semi-purified (protein, UniProt O60271 1-1321)
chain: MELEDGVVYQEEPGGSGAVMSERVSGLAGSIYREFERLIGRYDEEVVKELMPLVVAVLENLDSVFAQDQEHQVELELLRDDNEQLITQYEREKALRKHAEEKFIEFEDSQEQEKKDLQTRVESLESQTRQLELKAKNYADQISRLEEREAELKKEYNALHQRHTEMIHNYMEHLERTKLHQLSGSDQLESTAHSRIRKERPISLGIFPLPAGDGLLTPDAQKGGETPGSEQWKFQELSQPRSHTSLKVSNSPEPQKAVEQEDELSDVSQGGSKATTPASTANSDVATIPTDTPLKEENEGFVKVTDAPNKSEISKHIEVQVAQETRNVSTGSAENEEKSEVQAIIESTPELDMDKDLSGYKGSSTPTKGIENKAFDRNTESLFEELSSAGSGLIGDVDEGADLLGMGREVENLILENTQLLETKNALNIVKNDLIAKVDELTCEKDVLQGELEAVKQAKLKLEEKNRELEEELRKARAEAEDARQKAKDDDDSDIPTAQRKRFTRVEMARVLMERNQYKERLMELQEAVRWTEMIRASRENPAMQEKKRSSIWQFFSRLFSSSSNTTKKPEPPVNLKYNAPTSHVTPSVKKRSSTLSQLPGDKSKAFDFLSEETEASLASRREQKREQYRQVKAHVQKEDGRVQAFGWSLPQKYKQVTNGQGENKMKNLPVPVYLRPLDEKDTSMKLWCAVGVNLSGGKTRDGGSVVGASVFYKDVAGLDTEGSKQRSASQSSLDKLDQELKEQQKELKNQEELSSLVWICTSTHSATKVLIIDAVQPGNILDSFTVCNSHVLCIASVPGARETDYPAGEDLSESGQVDKASLCGSMTSNSSAETDSLLGGITVVGCSAEGVTGAATSPSTNGASPVMDKPPEMEAENSEVDENVPTAEEATEATEGNAGSAEDTVDISQTGVYTEHVFTDPLGVQIPEDLSPVYQSSNDSDAYKDQISVLPNEQDLVREEAQKMSSLLPTMWLGAQNGCLYVHSSVAQWRKCLHSIKLKDSILSIVHVKGIVLVALADGTLAIFHRGVDGQWDLSNYHLLDLGRPHHSIRCMTVVHDKVWCGYRNKIYVVQPKAMKIEKSFDAHPRKESQVRQLAWVGDGVWVSIRLDSTLRLYHAHTYQHLQDVDIEPYVSKMLGTGKLGFSFVRITALMVSCNRLWVGTGNGVIISIPLTETNKTSGVPGNRPGSVIRVYGDENSDKVTPGTFIPYCSMAHAQLCFHGHRDAVKFFVAVPGQVISPQSSSSGTDLTGDKAGPSAQEPGSQTPLKSMLVISGGEGYIDFRMGDEGGESELLGEDLPLEPSVTKAERSHLIVWQVMYGNE
Consider B2, for which the binding entry in assay [3] is on record as “binds”.

B3: JIP4/SPAG9 scaffolding protein, endogenous in HEK293T (protein, UniProt O60271 1-1321)
chain: MELEDGVVYQEEPGGSGAVMSERVSGLAGSIYREFERLIGRYDEEVVKELMPLVVAVLENLDSVFAQDQEHQVELELLRDDNEQLITQYEREKALRKHAEEKFIEFEDSQEQEKKDLQTRVESLESQTRQLELKAKNYADQISRLEEREAELKKEYNALHQRHTEMIHNYMEHLERTKLHQLSGSDQLESTAHSRIRKERPISLGIFPLPAGDGLLTPDAQKGGETPGSEQWKFQELSQPRSHTSLKVSNSPEPQKAVEQEDELSDVSQGGSKATTPASTANSDVATIPTDTPLKEENEGFVKVTDAPNKSEISKHIEVQVAQETRNVSTGSAENEEKSEVQAIIESTPELDMDKDLSGYKGSSTPTKGIENKAFDRNTESLFEELSSAGSGLIGDVDEGADLLGMGREVENLILENTQLLETKNALNIVKNDLIAKVDELTCEKDVLQGELEAVKQAKLKLEEKNRELEEELRKARAEAEDARQKAKDDDDSDIPTAQRKRFTRVEMARVLMERNQYKERLMELQEAVRWTEMIRASRENPAMQEKKRSSIWQFFSRLFSSSSNTTKKPEPPVNLKYNAPTSHVTPSVKKRSSTLSQLPGDKSKAFDFLSEETEASLASRREQKREQYRQVKAHVQKEDGRVQAFGWSLPQKYKQVTNGQGENKMKNLPVPVYLRPLDEKDTSMKLWCAVGVNLSGGKTRDGGSVVGASVFYKDVAGLDTEGSKQRSASQSSLDKLDQELKEQQKELKNQEELSSLVWICTSTHSATKVLIIDAVQPGNILDSFTVCNSHVLCIASVPGARETDYPAGEDLSESGQVDKASLCGSMTSNSSAETDSLLGGITVVGCSAEGVTGAATSPSTNGASPVMDKPPEMEAENSEVDENVPTAEEATEATEGNAGSAEDTVDISQTGVYTEHVFTDPLGVQIPEDLSPVYQSSNDSDAYKDQISVLPNEQDLVREEAQKMSSLLPTMWLGAQNGCLYVHSSVAQWRKCLHSIKLKDSILSIVHVKGIVLVALADGTLAIFHRGVDGQWDLSNYHLLDLGRPHHSIRCMTVVHDKVWCGYRNKIYVVQPKAMKIEKSFDAHPRKESQVRQLAWVGDGVWVSIRLDSTLRLYHAHTYQHLQDVDIEPYVSKMLGTGKLGFSFVRITALMVSCNRLWVGTGNGVIISIPLTETNKTSGVPGNRPGSVIRVYGDENSDKVTPGTFIPYCSMAHAQLCFHGHRDAVKFFVAVPGQVISPQSSSSGTDLTGDKAGPSAQEPGSQTPLKSMLVISGGEGYIDFRMGDEGGESELLGEDLPLEPSVTKAERSHLIVWQVMYGNE
In the case of B3, the binding entry in assay [2] was “binds”.
